Test results: article PMC10190626
Results are given in words; binding and its absence hold for the method and conditions named. Binding seen in cells or lysates may run through a third protein. Some binding calls cover weakened binding; strength is not graded here. Tags and fused reporters may be left off the sequences shown.

By UniProt entry, the sequences of proteins in these tests, tags left out.
UniProt Q96D31: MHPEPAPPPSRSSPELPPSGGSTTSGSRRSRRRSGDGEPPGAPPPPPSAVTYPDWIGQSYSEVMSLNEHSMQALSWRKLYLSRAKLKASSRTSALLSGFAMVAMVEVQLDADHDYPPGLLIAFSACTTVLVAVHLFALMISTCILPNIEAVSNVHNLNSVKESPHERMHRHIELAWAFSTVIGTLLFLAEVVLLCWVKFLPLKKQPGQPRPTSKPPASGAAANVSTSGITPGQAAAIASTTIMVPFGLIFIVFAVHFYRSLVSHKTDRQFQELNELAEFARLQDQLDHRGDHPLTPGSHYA

Target: Flag-Myc-Orai1 (UniProt Q96D31)
Assay: co-IP; HEK293T cells co-transfected for 18 h; lysis in 20 mM Tris-HCl pH 7.4, 150 mM NaCl, 1% Triton X-100; supernatant incubated overnight at 4 °C with anti-Flag M2 agarose beads; immunoblot; cells with or without 50 µM FCF (SEPTIN inhibitor) and, for STIM1, with or without TG (1 µM)

binding: binds
B1: GFP-SEPT2 (protein, UniProt Q15019 1-361)
chain: MSKQQPTQFINPETPGYVGFANLPNQVHRKSVKKGFEFTLMVVGESGLGKSTLINSLFLTDLYPERVIPGAAEKIERTVQIEASTVEIEERGVKLRLTVVDTPGYGDAINCRDCFKTIISYIDEQFERYLHDESGLNRRHIIDNRVHCCFYFISPFGHGLKPLDVAFMKAIHNKVNIVPVIAKADTLTLKERERLKKRILDEIEEHNIKIYHLPDAESDEDEDFKEQTRLLKASIPFSVVGSNQLIEAKGKKVRGRLYPWGVVEVENPEHNDFLKLRTMLITHMQDLQEVTQDLHYENFRSERLKRGGRKVENEDMNKDQILLEKEAELRRMQEMIARMQAQMQMQMQGGDGDGGALGHHV
